Reference: PMC4754747
Results are given in words; binding and its absence hold for the method and conditions named. Some entries that bind do so weakly or less than the wild type.

The chains behind the UniProt entries cited, without tags or fusion partners.
UniProt P06732: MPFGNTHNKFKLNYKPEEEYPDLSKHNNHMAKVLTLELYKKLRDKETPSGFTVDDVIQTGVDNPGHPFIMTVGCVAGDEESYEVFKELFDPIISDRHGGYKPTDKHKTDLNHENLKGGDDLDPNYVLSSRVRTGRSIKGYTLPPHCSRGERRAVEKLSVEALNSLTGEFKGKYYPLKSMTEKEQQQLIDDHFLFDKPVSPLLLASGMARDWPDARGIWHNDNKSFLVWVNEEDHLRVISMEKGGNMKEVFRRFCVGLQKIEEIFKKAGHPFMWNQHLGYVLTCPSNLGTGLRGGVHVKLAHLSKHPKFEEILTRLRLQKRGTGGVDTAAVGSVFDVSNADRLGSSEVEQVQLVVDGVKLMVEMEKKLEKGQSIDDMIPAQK

Target: human muscle-type creatine kinase homodimer (hMMCK) (human) (UniProt P06732)
Assay: SEC; gel filtration on Superdex 200 10/300 GL (AKTA purifier) of thermally inactivated samples; temperatures for hMMCK not stated in the text (thermal inactivation: 0.2 mg/ml enzyme in 5 mM Tris-HCl, pH 8.0, 10 min); dimer to monomers; both purified

binding: binds
Substance: human muscle-type creatine kinase homodimer (hMMCK) (from UniProt P06732 1-381) (enzyme)
